Results are given in words; binding and its absence hold for the method and conditions named. In cells and extracts the contact can be indirect. Here binding means that the protein was enriched with, or labelled near, the bait; the list need not be complete. Sequences can lack the tags named with a protein.

The chains are these.
B1: annexin A6 (protein, UniProt P14824 1-673)
chain: MAKIAQGAMYRGSVHDFPEFDANQDAEALYTAMKGFGSDKESILELITSRSNKQRQEICQNYKSLYGKDLIEDLKYELTGKFERLIVNLMRPLAYCDAKEIKDAISGVGTDEKCLIEILASRTNEQMHQLVAAYKDAYERDLESDIIGDTSGHFQKMLVVLLQGTRENDDVVSEDLVQQDVQDLYEAGELKWGTDEAQFIYILGNRSKQHLRLVFDEYLKTTGKPIEASIRGELSGDFEKLMLAVVKCIRSTPEYFAERLFKAMKGLGTRDNTLIRIMVSRSELDMLDIREIFRTKYEKSLYSMIKNDTSGEYKKALLKLCGGDDDAAGQFFPEAAQVAYQMWELSAVSRVELKGTVCAANDFNPDADAKALRKAMKGIGTDEATIIDIVTHRSNAQRQQIRQTFKSHFGRDLMADLKSEISGDLARLILGLMMPPAHYDAKQLKKAMEGAGTDEKTLIEILATRTNAEIRAINEAYKEDYHKSLEDALSSDTSGHFRRILISLATGNREEGGENRDQAQEDAQVAAEILEIADTPSGDKTSLETRFMTVLCTRSYPHLRRVFQEFIKKTNYDIEHVIKKEMSGDVKDAFVAIVQSVKNKPLFFADKLYKSMKGAGTDEKTLTRVMVSRSEIDLLNIRREFIEKYDKSLHQAIEGDTSGDFMKALLALCGGED
B2: synaptojanin 2 (enzyme, UniProt Q9D2G5 1-1434)
chain: MALSKGLRLLARLDPTGPSSVLLEARGRGDCLLFEAGAVATLAPEEKEVIKGLYSKLTDAYGCLGELRLQSGGVPLSFLVLVTGCMSVGRIPDAEIYKITATELYPLQEEAKEEDRLPTLKKILSSGVFYFAWPNDGACFDLTIRAQKQGDDGSEWGTSFFWNQLLHVPLRQHQVNCHNWLLKVICGVVTIRTVYASHKQAKACLISRISCERAGARFLTRGVNDDGHVSNFVETEQTIYMDDGVSSFVQIRGSVPLFWEQPGLQVGSHHLRLHRGLEANAPAFERHMVLLKEQYGKQVVVNLLGSRGGEEVLNRAFKKLLWASCHAGDTPMINFDFHQFAKGRKLEKLENLLRPQLQLHWEDFGVFAKGENVSPRFQKGTLRMNCLDCLDRTNTVQCFIALEVLHLQLESLGLNSKPIIDRFVESFKAMWSLNGHSLSKVFTGSRALEGKAKVGKLKDGARSMSRTIQSNFFDGVKQEAIKLLLVGDVYNEESTDKGRMLLDNTALLATPRILKAMTERQSEFTNFKRIQIAVGTWNVNGGKQFRSNLLGTAELTDWLLDAPQLSGAVDSQDDGSPADVFAIGFEEMVELSAGNIVNASTTNRKMWGEQLQKAISRSHRYILLTSAQLVGVCLYIFVRPYHVPFIRDVAIDTVKTGMGGKAGNKGAVGIRFQLHSTSFCFVCSHLTAGQSQVKERNEDYREITHKLSFPSGRNIFSHDYVFWCGDFNYRIDLTYEEVFYFVKRQDWKKLMEFDQLQLQKSSGKIFKDFHEGAVNFGPTYKYDVGSAAYDTSDKCRTPAWTDRVLWWRKKHPYDKTAGELNLLDSDLDGDPQIRHTWSPGTLKYYGRAELQASDHRPVLAIVEVEVQEVDVGARERVFQEVSSVQGPLDATVVVNLQSPTLEEKNEFPEDLRTELMQTLGNYGTIILVRINQGQMLVTFADSHSALSVLDVDGMKVKGRAVKIRPKTKDWLEGLREELLRKRDSMAPVSPTANSCLLEENFDFSSLDYESEGDVLEEDEDYLVDGFGQPVVSDSELGGDNSSDTMSSLTPASKSPALAKKKQHPTYKAGLMVKKSASDASISSGTHGQYSILQTAKLLPGAPQQPPKARTGISKPYNVKQIKTTNAQEAEAAIRCLLEASGGVPESAPGAIPLRNQGSSKPEATLGPPALPRRPAPRVPTMKKPTLRRTGKPMLPEENFEPQPVHFTMASQEMNLETPPPITATPIPPVPKPRTLQPGKGVEGRPSSGKPEPDEAPSVTGTVESPPPEAQEAPSLAPKVPPRRKKSAPAAFHLQVLQNNSQVLQGLTCSSSSPPSLKPDTHPLCLQVALGTSSARSPETHGPRVTEPEAASFHGNYPDPFWSLLHHPKLLNNTWLSKSSEPLDVGSRNPERTHTEPAQVNASLAERGLPPDHGGKDLSHWVTASNKDKRTTLGV
B3: Shank2 (protein, UniProt Q80Z38 1-1476)
chain: MKSLLNAFTKKEVPFREAPAYSNRRRRPPNTLAAPRVLLRSNSDNNLNAGAPEWAVCSAATSHRSLSPQLLQQTPSKPDGATKSLGSYTPGPRSRSPSLNRLGGTAEDGKRTQPHWHVGSPFTPGANKDSLSTFEYPGPRRKLYSAVPGRLFVAVKPYQPQVDGEIPLHRGDRVKVLSIGEGGFWEGSARGHIGWFPAECVEEVQCKPRDSQAETRADRSKKLFRHYTVGSYDSFDAASDCIIEDKTVVLQKKDNEGFGFVLRGAKADTPIEEFTPTPAFPALQYLESVDEGGVAWQAGLRTGDFLIEVNNENVVKVGHRQVVNMIRQGGNHLILKVVTVTRNLDPDDTARKKAPPPPKRAPTTALTLRSKSMTAELEELGLSLVDKASVRKKKDKPEEIVPASKPSRTAENVAIESRVATIKQRPTSRCFPAASDVNSVYERQGIAVMTPTVPGSPKGPFLGLPRGTMRRQKSIDSRIFLSGITEEERQFLAPPMLKFTRSLSMPDTSEDIPPPPQSVPPSPPPPSPTTYNCPRSPTPRVYGTIKPAFNQNPVVAKVPPATRSDTVATMMREKGMFYRRELDRFSLDSEDVYSRSPAPQAAFRTKRGQMPENPYSEVGKIASKAVYVPAKPARRKGVLVKQSNVEDSPEKTCSIPIPTIIVKEPSTSSSGKSSQGSSMEIDPQATEPGQLRPDDSLTVSSPFAAAIAGAVRDREKRLEARRNSPAFLSTDLGDEDVGLGPPAPRMQASKFPEEGGFGDEDETEQPLLPTPGAAPRELENHFLGGGEAGAQGEAGGPLSSTSKAKGPESGPAAPLKSSSPAGPENYVHPLTGRLLDPSSPLALALSARDRAMQESQQGHKGEAPKADLNKPLYIDTKMRPSVESGFPPVTRQNTRGPLRRQETENKYETDLGKDRRADDKKNMLINIVDTAQQKSAGLLMVHTVDVPMAGPPLEEEEDREDGDTKPDHSPSTVPEGVPKTEGALQISAAPEPAVAPGRTIVAAGSVEEAVILPFRIPPPPLASVDLDEDFLFTEPLPPPLEFANSFDIPDDRAASVPALADLVKQKKNDTSQPPTLNSSQPANSTDSKKPAGISNCLPSSFLPPPESFDAVTDSGIEEVDSRSSSDHHLETTSTISTVSSISTLSSEGGESMDTCTVYADGQAFVVDKPPVPPKPKMKPIVHKSNALYQDTLPEEDTDGFVIPPPAPPPPPGSAQAGVAKVIQPRTSKLWGDVPEVKSPILSGPKANVISELNSILQQMNRGKSVKPGEGLELPVGAKSANLAPRSPEVMSTVSGTRSTTVTFTVRPGTSQPITLQSRPPDYESRTSGPRRAPSPVVSPTELSKEILPTPPPPSATAASPSPTLSDVFSLPSQSPAGDLFGLNPAGRSRSPSPSILQQPISNKPFTTKPVHLWTKPDVADWLESLNLGEHKETFMDNEIDGSHLPNLQKEDLIDLGVTRVGHRMNIERALKQLLDR
B4: Plekha7 (protein, UniProt Q3UIL6 1-1118)
chain: MAAAVGRDTLPEHWSYGVCRDGRVFFINDQLRCTTWLHPRTGEPVNSGHMIRSDLPRGWEEGFTEEGASFFIDHNQQTTTFRHPVTGQFSSENSEYVLREEPHPHMSKPERNQRPSSMVSETSTAGTTSTLEAKPGPKIVKSSSKVHSFGKRDQAIRRNLNVPVVVRGWLHKQDSSGMRLWKRRWFVLADYCLFYYKDSREEAVLGSIPLPSYVISPVAPEDRISRKYSFKAVHTGMRALIYSTTTAGSQMEHSGMRTYYFSADTLEDMNAWVRAMNQAAQVLSRSSLRRDVDKVERQAMPQANHTDACQECGHVGPGHSRDCPRRGYEDSYGFNRREQEEERFRAQRDPLEGRRDRSKARSPYLPAEEDALFVDLPGGPRGQQAQPQRAEKNGVPPYGLGEQNGTNGYQRTAPPRANPEKHSQRKTGLAQAEHWTKAQKGDGRSLPLDQTLPRQGPSQPLSFPENYQSLPKSTRHLSGSSSPPPRNLPSDYKYAQDRASHLKMSSEERRAHRDGTVWQLYEWQQRQQFRHGSPTAPIGAGSPEFTEQGRSRSLLEVPRSISVPPSPSDIPPPGPPRPFPPRRPHTPAERVTVKPPEQRRSVDISLGGSPRKARGHAAKNSSHVDRRSMPSMGYMTHTVSAPSLHGKSADDTYLQLKKDLEYLDLKMTGRDLLKDRSLKPMKIAESDIDVKLSIFCEQDRILQDLEDKIRALKENKDQLESVLEVLHRQTEQYRDQPQHLEKITCQQRLLQEDLVHIRAELCRESTEMENAWNEYLKLEKDVEQLKQTLQEQHRRAFFFQEKSQIQKDLWRIEDVMAGLSANKENYRVLVGSVKNPERKTVPLFPHPSVPSLSPTESKPALQPSPPTSPVRTPLEVRLFPQLQTYVPYRPHPPQLRKVMSPLQSPTKAKPQAEDEAPPRPPLPELYSPEDQPPAVPPLPREATIIRHTSVRGLKRQSDERKRDREQGQCVNGDLKVELRSYVSEPELASLSGDVPQPSLSLVGSESRYQTLPGRGLSGSTSRLQQSSTIAPYVTLRRGLNAENSSATFSRPKSALERLYSGDHQRGKMSAEEQLERMKRHQKALVRERKRTLSQGEKTGLLSARYLSQPLPGDLGSVC

The target in the test is T1, VGluRδ2 (fusion between Venus and the glutamate receptor delta2, GluRδ2) (UniProt Q61625).
T1 sequence: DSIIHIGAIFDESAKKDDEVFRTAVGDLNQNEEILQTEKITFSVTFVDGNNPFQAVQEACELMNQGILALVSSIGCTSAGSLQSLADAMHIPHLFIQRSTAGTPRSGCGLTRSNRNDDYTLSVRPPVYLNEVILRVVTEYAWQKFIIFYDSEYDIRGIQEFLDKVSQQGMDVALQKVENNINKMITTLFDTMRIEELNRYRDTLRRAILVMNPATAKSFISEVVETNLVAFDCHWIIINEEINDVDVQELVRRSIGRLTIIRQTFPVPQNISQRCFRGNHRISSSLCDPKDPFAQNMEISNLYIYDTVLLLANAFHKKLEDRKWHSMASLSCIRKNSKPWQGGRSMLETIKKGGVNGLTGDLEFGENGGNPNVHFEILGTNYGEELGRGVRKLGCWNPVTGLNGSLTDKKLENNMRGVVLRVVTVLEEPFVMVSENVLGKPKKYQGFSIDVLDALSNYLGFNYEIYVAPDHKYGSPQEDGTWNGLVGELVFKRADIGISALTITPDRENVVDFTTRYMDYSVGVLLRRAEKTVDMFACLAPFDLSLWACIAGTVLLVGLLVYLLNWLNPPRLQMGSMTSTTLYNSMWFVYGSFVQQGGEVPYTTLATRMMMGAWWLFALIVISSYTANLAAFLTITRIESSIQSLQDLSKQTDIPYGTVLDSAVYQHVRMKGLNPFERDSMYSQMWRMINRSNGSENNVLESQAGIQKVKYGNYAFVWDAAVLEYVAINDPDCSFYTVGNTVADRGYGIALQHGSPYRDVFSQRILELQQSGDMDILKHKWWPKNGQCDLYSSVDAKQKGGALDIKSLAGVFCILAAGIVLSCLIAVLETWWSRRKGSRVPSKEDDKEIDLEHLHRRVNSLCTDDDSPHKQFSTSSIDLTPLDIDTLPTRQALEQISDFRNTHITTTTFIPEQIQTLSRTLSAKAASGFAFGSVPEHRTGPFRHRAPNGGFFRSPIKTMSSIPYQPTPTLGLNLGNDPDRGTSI
The experiment in a line: affinity purification with mass spectrometry; same anti-GFP affinity purification of pooled synaptic fractions (samples pooled from 30 and from 50 Pcp2/VGluRδ2 cerebella); SDS-PAGE, in-gel trypsin digestion, MALDI QqTOF MS and MALDI-IT MS/MS; control isolates from Pcp2/eGFP mice.
B1: the binding result is listed as “binds”. For the molecule B2, the binding result was “binds”. Take B3: the binding result is on record as “binds”. Take B4: the binding result is reported as “binds”.

The values above are taken from article PMC2672601.
